Experimental data published in publication PMC8639922, “KSHV transactivator-derived small peptide traps coactivators to attenuate MYC and inhibits leukemia and lymphoma cell growth” (Communications Biology, 2021).
These are yes or no findings as the source states them, for the method shown. In cells and extracts the contact can be indirect. Here binding means that the protein was enriched with, or labelled near, the bait; the list need not be complete.

Chains of the proteins cited; added tags and fusions are not shown.
UniProt F5HCV3: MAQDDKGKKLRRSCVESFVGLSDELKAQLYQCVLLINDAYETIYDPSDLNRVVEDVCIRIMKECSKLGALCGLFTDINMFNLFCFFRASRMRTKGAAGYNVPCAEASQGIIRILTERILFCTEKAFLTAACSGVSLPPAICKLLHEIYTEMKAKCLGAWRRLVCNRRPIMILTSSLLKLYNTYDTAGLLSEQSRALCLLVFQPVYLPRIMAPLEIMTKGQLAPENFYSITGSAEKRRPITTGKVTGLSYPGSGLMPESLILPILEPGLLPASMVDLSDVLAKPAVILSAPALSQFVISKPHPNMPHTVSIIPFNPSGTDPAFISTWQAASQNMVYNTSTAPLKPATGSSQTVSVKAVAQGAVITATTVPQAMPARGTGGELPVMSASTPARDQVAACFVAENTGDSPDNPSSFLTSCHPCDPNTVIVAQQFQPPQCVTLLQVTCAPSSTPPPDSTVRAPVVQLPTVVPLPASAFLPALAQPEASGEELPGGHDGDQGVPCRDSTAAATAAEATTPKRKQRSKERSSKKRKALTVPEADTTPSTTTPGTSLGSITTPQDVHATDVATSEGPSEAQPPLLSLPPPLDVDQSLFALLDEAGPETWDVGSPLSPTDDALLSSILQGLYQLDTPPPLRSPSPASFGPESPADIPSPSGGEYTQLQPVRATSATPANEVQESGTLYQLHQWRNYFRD
UniProt Q15596: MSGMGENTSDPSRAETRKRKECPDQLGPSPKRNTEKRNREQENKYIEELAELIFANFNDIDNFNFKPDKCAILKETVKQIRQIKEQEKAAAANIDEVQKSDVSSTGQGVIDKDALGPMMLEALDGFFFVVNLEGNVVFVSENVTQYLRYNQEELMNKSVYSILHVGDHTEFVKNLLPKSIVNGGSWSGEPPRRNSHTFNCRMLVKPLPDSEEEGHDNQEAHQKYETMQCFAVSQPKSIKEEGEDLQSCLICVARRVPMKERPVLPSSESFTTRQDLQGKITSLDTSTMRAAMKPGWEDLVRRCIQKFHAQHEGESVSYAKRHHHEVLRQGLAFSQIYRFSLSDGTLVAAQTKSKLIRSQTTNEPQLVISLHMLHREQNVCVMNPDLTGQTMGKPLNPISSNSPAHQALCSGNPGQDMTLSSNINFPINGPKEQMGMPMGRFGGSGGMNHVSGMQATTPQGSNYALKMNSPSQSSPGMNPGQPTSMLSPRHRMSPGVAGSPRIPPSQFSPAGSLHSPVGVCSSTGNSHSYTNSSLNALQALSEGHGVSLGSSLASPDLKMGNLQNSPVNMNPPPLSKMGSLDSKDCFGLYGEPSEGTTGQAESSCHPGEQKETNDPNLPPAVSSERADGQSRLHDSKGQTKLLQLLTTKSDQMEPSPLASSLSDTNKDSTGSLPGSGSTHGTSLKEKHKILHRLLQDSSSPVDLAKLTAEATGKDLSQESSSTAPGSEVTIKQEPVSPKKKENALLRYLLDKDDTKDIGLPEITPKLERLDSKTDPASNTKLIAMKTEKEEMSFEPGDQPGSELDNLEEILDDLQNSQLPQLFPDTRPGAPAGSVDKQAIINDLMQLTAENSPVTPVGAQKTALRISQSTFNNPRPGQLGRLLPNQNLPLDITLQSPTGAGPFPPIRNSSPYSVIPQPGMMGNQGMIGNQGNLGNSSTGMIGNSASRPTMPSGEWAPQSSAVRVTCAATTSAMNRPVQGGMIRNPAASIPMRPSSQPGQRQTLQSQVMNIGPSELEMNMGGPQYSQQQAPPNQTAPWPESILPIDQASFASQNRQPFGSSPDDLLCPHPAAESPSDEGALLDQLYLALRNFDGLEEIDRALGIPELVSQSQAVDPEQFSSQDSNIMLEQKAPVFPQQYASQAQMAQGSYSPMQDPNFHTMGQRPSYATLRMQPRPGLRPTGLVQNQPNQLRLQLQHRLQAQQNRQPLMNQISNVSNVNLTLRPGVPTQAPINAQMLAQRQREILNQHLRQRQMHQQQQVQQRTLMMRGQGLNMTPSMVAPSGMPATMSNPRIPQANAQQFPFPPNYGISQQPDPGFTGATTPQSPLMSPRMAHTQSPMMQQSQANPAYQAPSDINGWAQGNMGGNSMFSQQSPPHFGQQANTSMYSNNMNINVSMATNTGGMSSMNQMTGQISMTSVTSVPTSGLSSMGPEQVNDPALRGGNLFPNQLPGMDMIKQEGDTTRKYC
UniProt Q09472: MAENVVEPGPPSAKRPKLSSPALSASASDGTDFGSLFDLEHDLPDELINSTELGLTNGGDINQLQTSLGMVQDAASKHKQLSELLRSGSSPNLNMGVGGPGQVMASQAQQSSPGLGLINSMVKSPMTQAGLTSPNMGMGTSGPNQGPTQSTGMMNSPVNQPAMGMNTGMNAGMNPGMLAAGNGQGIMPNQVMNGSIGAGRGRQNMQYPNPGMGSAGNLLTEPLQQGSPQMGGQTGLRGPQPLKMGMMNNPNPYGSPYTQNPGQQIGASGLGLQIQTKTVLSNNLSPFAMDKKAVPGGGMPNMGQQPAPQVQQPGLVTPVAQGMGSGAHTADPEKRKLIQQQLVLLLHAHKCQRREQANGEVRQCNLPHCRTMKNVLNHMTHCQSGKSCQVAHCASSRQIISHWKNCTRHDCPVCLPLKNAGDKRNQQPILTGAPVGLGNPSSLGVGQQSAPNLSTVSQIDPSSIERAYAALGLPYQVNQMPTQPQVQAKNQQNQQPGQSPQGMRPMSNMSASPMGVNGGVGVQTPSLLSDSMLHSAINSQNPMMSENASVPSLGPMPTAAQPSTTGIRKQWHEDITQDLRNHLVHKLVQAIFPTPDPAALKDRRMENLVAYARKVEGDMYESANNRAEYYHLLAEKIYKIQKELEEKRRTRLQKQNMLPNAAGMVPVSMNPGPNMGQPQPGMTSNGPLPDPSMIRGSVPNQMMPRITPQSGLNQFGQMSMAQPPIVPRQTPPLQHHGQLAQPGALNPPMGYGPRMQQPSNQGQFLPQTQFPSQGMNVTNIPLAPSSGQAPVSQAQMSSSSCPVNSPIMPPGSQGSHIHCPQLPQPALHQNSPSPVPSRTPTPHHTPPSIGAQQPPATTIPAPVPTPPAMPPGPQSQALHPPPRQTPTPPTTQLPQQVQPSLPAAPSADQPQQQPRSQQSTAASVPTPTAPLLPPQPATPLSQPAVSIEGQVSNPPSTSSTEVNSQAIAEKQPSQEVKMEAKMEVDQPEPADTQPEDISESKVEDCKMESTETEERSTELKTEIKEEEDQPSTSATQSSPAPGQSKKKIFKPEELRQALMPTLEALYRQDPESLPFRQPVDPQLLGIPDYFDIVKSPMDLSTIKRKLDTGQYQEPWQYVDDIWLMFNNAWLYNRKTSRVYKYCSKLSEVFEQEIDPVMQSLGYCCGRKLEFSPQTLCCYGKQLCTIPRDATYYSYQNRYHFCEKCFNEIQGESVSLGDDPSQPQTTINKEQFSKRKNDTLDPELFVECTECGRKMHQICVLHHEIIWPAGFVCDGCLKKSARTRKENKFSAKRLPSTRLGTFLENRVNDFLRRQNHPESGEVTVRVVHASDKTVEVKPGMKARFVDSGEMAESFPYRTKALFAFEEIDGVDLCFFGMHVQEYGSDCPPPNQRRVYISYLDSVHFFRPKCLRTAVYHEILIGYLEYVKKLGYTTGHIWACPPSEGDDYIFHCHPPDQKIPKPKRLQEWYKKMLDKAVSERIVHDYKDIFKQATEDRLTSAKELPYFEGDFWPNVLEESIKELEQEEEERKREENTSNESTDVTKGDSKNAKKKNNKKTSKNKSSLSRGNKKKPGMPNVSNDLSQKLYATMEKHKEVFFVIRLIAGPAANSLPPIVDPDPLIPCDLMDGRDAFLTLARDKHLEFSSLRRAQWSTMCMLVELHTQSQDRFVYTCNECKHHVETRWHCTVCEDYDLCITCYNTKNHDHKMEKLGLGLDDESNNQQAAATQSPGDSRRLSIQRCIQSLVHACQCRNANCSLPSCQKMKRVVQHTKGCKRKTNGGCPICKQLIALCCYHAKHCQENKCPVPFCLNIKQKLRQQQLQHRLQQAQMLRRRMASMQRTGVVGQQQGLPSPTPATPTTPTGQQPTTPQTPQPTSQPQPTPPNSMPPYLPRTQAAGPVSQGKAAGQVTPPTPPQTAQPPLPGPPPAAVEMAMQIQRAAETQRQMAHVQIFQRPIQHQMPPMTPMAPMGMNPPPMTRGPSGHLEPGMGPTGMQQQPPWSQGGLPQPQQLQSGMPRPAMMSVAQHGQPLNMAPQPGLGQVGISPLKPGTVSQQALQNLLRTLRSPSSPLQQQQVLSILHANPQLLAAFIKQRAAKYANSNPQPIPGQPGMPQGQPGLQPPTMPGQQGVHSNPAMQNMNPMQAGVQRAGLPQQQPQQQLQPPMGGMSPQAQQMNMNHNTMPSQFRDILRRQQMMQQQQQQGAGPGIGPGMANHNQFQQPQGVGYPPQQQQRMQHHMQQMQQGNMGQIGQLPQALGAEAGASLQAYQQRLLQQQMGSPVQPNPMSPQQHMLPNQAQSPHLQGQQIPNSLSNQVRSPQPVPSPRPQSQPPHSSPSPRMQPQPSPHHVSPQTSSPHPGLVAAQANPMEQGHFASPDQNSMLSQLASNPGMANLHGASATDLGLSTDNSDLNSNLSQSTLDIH

Target: Flag-tagx3-HA-tagx3 (F3H3)-K-Rta, KSHV replication and transactivation protein (Kaposi's sarcoma-associated herpesvirus (human herpesvirus 8)) (UniProt F5HCV3)
Assay: affinity purification with mass spectrometry

Substance | binding
Nuclear receptor coactivator 2 (from UniProt Q15596 1-1464) | binds
p300 histone acetylase (from UniProt Q09472 1-2414) | binds
